Results taken from PubChem BioAssay (NCATS).
This is one part of the list. The main result of the screen is listed elsewhere. These columns were measured beside it and carry no call. Most of these compounds were active or inconclusive in the main read-out, so they are no random draw. The note in brackets gives the kind of curve behind each potency; many fits are weak.

Experiment: A High-Content qHTS Against Drug Library for the Identification of Small Molecules that Inhibit DYT1 Early Onset Primary Dystonia-Associated Cell Pathology (AID 1645839)
Settings: HEK293 Flp-In EGFP-delE TorsinA, punctate imaging, 48 h; measured here: cell count cytotoxicity
In short: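 Induced EGFP-delE TorsinA cells are imaged after 48 h of compound treatment. Punctate fusion-protein distribution gives the %pathology value, while nuclei counts flag toxicity. Wild-type EGFP-hTOR1A cells define the normal pattern.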

| Structure (SMILES) | AC50 |
| --- | --- |
| CC(=O)[C@H]1CC[C@H]2[C@@H]3C=CC4=CC(=O)CC[C@@]4(C)[C@@H]3CC[C@]12C | 11.2 µM [falling, single point] |
| CC[C@]1(O)C[C@@H]2CN(CCc3c([nH]c4ccccc34)[C@@](C(=O)OC)(c3cc4c(cc3OC)N(C)[C@H]3[C@@](O)(C(=O)OC)[C@H](OC(C)=O)[C@]5(CC)C=CCN6CC[C@]43[C@@H]65)C2)C1 | 3.16 µM [falling, full curve, poor fit] |
| C#C[C@]1(O)CC[C@H]2[C@@H]3CCc4cc(OC5CCCC5)ccc4[C@H]3CC[C@@]21C | 22.4 µM [falling, single point] |
| O=C(c1cc(O)c(O)c(O)c1)c1ccc(O)c(O)c1O | 17.8 µM [falling, single point] |
| Cc1ncc([N+](=O)[O-])n1C | 2.51 µM [rising, full curve, poor fit] |
| CC1Cc2ccccc2N1NC(=O)c1ccc(Cl)c(S(N)(=O)=O)c1 (centres undefined) | 7.94 µM [falling, partial curve, poor fit] |
| C/C=C(/C(=C/C)c1ccc(OC(C)=O)cc1)c1ccc(OC(C)=O)cc1 | 5.62 µM [falling, full curve, poor fit] |
| CN(C)CCCOc1nn(Cc2ccccc2)c2ccccc12 | 11.2 µM [falling, partial curve, poor fit] |
| CCOC(=O)[C@H](CCc1ccccc1)N[C@@H](C)C(=O)N1[C@H](C(=O)O)C[C@@H]2CCC[C@@H]21 | 35.5 µM [rising, single point] |

2 records picked at random from the list so far, as already listed:

| Structure (SMILES) | AC50 |
| --- | --- |
| C#C[C@]1(O)CC[C@H]2[C@@H]3CCc4cc(OC5CCCC5)ccc4[C@H]3CC[C@@]21C | 22.4 µM [falling, single point] |
| CC[C@]1(O)C[C@@H]2CN(CCc3c([nH]c4ccccc34)[C@@](C(=O)OC)(c3cc4c(cc3OC)N(C)[C@H]3[C@@](O)(C(=O)OC)[C@H](OC(C)=O)[C@]5(CC)C=CCN6CC[C@]43[C@@H]65)C2)C1 | 3.16 µM [falling, full curve, poor fit] |
